Measured values taken from patent EP4778539A1.
No constants are given. Whether binding was seen depends on the method and setting. Some entries that bind do so weakly or less than the wild type.

Experiments:
[1] = molecular target: T1, mouse CAPRIN-1 on the cell membrane surface of mouse cancer cells (mouse) (UniProt Q60865); experiment: flow cytometry, 4T1
T1 sequence (looked up): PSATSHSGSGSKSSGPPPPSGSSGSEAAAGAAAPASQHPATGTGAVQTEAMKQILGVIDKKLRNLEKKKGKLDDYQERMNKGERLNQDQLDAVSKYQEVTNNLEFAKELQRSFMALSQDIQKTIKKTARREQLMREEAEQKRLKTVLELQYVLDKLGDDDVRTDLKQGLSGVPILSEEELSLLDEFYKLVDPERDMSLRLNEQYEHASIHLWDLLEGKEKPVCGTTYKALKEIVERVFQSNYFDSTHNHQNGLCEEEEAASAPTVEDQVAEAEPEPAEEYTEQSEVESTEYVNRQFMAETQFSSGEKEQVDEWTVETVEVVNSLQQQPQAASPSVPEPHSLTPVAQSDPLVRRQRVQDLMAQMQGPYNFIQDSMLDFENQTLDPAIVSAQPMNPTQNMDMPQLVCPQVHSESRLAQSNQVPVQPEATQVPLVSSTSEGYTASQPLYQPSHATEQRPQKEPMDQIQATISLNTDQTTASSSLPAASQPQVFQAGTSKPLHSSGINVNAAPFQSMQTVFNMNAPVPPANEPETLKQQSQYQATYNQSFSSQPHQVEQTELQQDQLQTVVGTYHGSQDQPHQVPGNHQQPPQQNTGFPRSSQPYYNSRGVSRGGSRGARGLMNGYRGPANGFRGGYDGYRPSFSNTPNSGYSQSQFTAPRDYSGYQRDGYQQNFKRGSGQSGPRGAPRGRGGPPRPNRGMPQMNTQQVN

[2] = molecular target: T2, human CAPRIN-1 on the cell membrane surface of human cancer cells (human) (UniProt Q14444); experiment: flow cytometry, HT29
T2 sequence (looked up): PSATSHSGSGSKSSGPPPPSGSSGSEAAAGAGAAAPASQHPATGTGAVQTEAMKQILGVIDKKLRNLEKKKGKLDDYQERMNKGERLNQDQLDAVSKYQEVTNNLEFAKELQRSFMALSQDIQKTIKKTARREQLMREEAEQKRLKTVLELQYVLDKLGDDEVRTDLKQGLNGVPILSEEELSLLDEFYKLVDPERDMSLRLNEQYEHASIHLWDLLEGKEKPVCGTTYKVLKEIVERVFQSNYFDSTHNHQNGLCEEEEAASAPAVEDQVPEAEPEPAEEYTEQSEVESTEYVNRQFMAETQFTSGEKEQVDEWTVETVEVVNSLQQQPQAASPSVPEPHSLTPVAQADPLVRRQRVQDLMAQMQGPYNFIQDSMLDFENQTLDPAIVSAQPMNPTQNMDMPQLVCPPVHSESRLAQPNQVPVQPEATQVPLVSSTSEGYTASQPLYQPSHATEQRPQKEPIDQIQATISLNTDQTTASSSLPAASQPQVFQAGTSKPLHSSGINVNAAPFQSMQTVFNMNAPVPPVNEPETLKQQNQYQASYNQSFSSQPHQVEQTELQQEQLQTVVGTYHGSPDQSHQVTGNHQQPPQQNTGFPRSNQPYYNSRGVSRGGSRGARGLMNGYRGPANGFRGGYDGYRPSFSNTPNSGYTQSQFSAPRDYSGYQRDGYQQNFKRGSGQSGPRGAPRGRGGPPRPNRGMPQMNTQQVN

[3] = molecular target: T2, human CAPRIN-1 on the cell membrane surface of human cancer cells (human); experiment: flow cytometry, human cancer cells
[4] = molecular target: T1, mouse CAPRIN-1 on the cell membrane surface of mouse cancer cells (mouse); experiment: flow cytometry, mouse cancer cells

Measured: binding

B1: Fab complex #41 (Fab, V domains shown)
VH: EVQLVESGGGLVQPGGSLRLSCAASGFSLSSHSLGWVRQAPGKGLEWIGDIRSGGSAYYANWAKGRFTISRDNSKNTLYLQMNSLRAEDTAVYFCTRTNGPSDLTNRLDLWGQGTLVTVSS
VL: EQVLTQSPSSLSASVGDRVTINCQASQSLYNNENLAWFQQKPGKVPKRLIYGASTLASGVSSRFSGSGSGTEFTLTISNLQPEDFAIYYCLGEFSCGSADCFAFGGGTKVEIK
binds: all assays above

B2: Fab complex #42 (Fab, V domains shown)
VH: AVTLDESGGGLQTPGGALSLVCKASGFTFSGYDMLWVRQAPGKGLEWVAGIGSTGGGTDYGAAVKGRATISRDNGQSTVRLQLNNLRAEDTATYYCAKVAGGCNSGYCRDSPGSIDAWGHGTEVIVS
VL: AVTQQPASVSANPGETVKITCSGGGSRNYYGWYQQKSPGSVPVTVIYYDDQRPSNIPSRFSGALSGSTSTLTITGVQADDEAVYFCGSADSNTYEGSFGAGTTLTVL
binds: all assays above

B3: Fab complex #46 (Fab, V domains shown)
VH: GAELVRSGASVKMSCKASGYSFTDYNMYWVKQTPGQGLEWIGYIYPGNGGTNYNQKFKGKATLTADTSSSTAYMQISSLTSEDSAVYFCARDYDDGGYAMDYWGQGTTVTVSS
VL: DIQMTQSPASLSASVGETVTITCRASGNIHNYLTWYQQKQGKSPQLLVYNAKTLADGVPSRFSGSGSGTQYSLKINRLQPEDFGSYYCQHFWNIPWTFGGGTKLNSR
binds: all assays above

B4: Fab complex #47 (Fab, V domains shown)
VH: DAELVKPGASVKISCKASGYTFTDHSIHWVQQKPEQGLEWIGYISPGNGNIKYNEKFKGKATLTADKSSSTAYMQLNSLTSEDSAVYFCKRSLGRGGPYYFDYWGQGTTVTVSS
VL: DIVLTQAAPSLPVTPGESVSISCRSSKSLLHSNGNTYLYWFLQRPGQSPQLLIYRMSNLASGVPDRFSGSGSGTAFTLRISRVEAEDVGVYYCMQHREYPVTFGSGPN
binds: all assays above

B5: Fab complex #63 (Fab, V domains shown)
VH: GPDLVKPGASVKISCKASGYSFTAYYMHWVKQSHGKSLEWIGRVNPNNGGTTYNQKFKGKAILTVDKSSSTAYMELRSLTFEDSAVYYCARRIYYGYFDYWGQGTTVTVSS
VL: AFFAVSLGQRATISCKASQSVDYDGDSYMNWYQQKPGQPPKLLIYVASNLESGVPARFSGSGSGTDFTLNIHPVEEEDAATYYCQQSNEDPYTFGGGTKLEIKQ
binds: all assays above

B6: Fab complex #69 (Fab, V domains shown)
VH: EVQLVESGGGLVQPGGSLRLSCAASGFSLSSHSLGWVRQAPGKGLEWIGDIRSGGSAYYANWAKGRFTISRDNSKNTLYLQMNSLRAEDTAVYYCTRTNGPSDLTNRLDLWGQGTLVTVSS
VL: QVLTQSPSSLSASVGDRVTINCQASQSLYNNENLAWFQQKPGKVPKRLIYGASTLASGVSSRFSGSGSGTEFTLTISSLQCEDFAIYYCLGEFSCGSADCFAFGGGTKVEIK
binds: all assays above

B7: Fab complex #70 (Fab, V domains shown)
VH: EVQLVESGGGLVQPGGSLRLSCAASGFSLSSHSLGWVRQAPGKGLEWIGDIRSGGSAYYANWAKGRFTISRDNSKNTLYLQMNSLRAEDTAVYFCTRTNGPSDLTNRLDLWGQGTLVTVSS
VL: QVLTQSPSSLSASVGDRVTINCQASQSLYNNENLAWFQQKPGKVPKRLIYGASTLASGVSSRFSGSGSGTEFTLTISSLQCEDFAIYYCLGEFSCGSADCFAFGGGTKVEIK
binds: all assays above

B8: Fab complex #71 (Fab, V domains shown)
VH: EVQLVESGGGLVQPGGSLRLSCAASGFSLSSHSLGWVRQAPGKGLEWIGDIRSGGSAYYANWAKGRFTISRDNSKNTLYLQMNSLRAEDTAVYYCTRTNGPSDLTNRLDLWGQGTLVTVSS
VL: EQVLTQSPSSLSASVGDRVTINCQASQSLYNNENLAWFQQKPGKVPKRLIYGASTLASGVSSRFSGSGSGTEFTLTISNLQPEDFAIYYCLGEFSCGSADCFAFGGGTKVEIK
binds: all assays above

B9: Fab complex #72 (Fab, V domains shown)
VH: EVQLVESGGGLVQPGGSLRLSCAASGFSLSSHSLGWVRQAPGKGLEWIGDIRSGGSAYYANWAKGRFTISRDNSKNTLYLQMNSLRAEDTAVYFCTRTNGPSDLTNRLDLWGQGTLVTVSS
VL: EIVLTQSPSSLSASVGDRVTINCQASQSLYNNENLAWFQQKPGKVPKRLIYGASTLASGVSSRFSGSGSGTEFTLTISNLQPEDFATYYCLGEFSCGSADCFAFGGGTKVEIK
binds: all assays above

B10: Fab complex #73 (Fab, V domains shown)
VH: EVQLVESGGGLVQPGGSLRLSCAASGFSLSSHSLGWVRQAPGKGLEWIGDIRSGGSAYYANWAKGRFTISRDNSKNTLYLQMNSLRAEDTAVYYCTRTNGPSDLTNRLDLWGQGTLVTVSS
VL: EIVLTQSPSSLSASVGDRVTINCQASQSLYNNENLAWFQQKPGKVPKRLIYGASTLASGVSSRFSGSGSGTEFTLTISNLQPEDFATYYCLGEFSCGSADCFAFGGGTKVEIK
binds: all assays above

B11: Fab complex #74 (Fab, V domains shown)
VH: EVQLVESGGGLVQPGGSLRLSCAASGFSLSSHSLGWVRQAPGKGLEWIGDIRSGGSAYYANWAKGRFTISRDNSKNTLYLQMNSLRAEDTAVYFCTRTNGPSDLTNRLDLWGQGTLVTVSS
VL: EQVLTQSPSSLSASVGDRVTINCQASQSLYNNENLAWFQQKPGKVPKRLIYGASTLASGVSSRFSGSGSGTEFTLTISNLQPEDFAIYYCLGEFSCGSADCFAFGGGTKVEIK
binds: all assays above
